Data taken from PMC12447449.
Results are given in words; binding and its absence hold for the method and conditions named. Binding seen in cells or lysates may run through a third protein. Some binding calls cover weakened binding; strength is not graded here. Where a sequence is shown, tags or fusion partners need not be part of it. Each block holds one molecule with its values, some of them ahead of it.

The chains behind the UniProt entries cited, without tags or fusion partners.
UniProt Q86XN7: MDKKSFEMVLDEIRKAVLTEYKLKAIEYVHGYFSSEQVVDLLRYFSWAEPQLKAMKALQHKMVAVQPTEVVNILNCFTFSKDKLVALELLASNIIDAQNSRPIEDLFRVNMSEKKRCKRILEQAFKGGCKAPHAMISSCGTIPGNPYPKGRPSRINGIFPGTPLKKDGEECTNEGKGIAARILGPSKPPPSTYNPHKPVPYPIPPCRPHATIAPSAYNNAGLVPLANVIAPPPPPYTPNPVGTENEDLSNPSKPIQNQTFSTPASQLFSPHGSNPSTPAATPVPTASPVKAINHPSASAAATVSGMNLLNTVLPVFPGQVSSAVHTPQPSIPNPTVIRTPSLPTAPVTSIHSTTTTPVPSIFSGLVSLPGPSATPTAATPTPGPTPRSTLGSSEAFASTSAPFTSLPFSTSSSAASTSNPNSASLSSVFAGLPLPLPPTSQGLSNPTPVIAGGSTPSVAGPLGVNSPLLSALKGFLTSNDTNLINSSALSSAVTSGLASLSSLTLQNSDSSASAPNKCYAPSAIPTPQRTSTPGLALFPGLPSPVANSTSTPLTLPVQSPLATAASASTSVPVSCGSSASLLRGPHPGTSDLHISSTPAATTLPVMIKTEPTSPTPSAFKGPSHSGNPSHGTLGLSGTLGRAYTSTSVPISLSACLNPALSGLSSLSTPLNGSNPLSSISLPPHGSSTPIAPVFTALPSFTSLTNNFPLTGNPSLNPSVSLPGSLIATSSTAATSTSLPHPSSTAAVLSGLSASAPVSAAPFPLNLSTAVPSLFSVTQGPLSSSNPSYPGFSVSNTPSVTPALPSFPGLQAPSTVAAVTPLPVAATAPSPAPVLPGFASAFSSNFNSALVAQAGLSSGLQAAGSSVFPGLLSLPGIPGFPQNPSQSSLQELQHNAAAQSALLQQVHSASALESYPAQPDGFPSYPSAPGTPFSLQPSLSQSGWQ

Key:
[1] = target: FLAG-tagged full-length human TET2 (human) (UniProt Q6N021); experiment: co-IP; FLAG M2 IP on lysates from the human dendritic cell line CAL-1 overexpressing FLAG-tagged full-length human TET2; western blot of input and eluates
[2] = target: FLAG-tagged full-length human TET2 (human) (UniProt Q6N021); experiment: co-IP; FLAG M2 IP on independent lysates from wild-type K562 or K562 cells overexpressing FLAG-tagged full-length human TET2; western blot of input and 10x concentrated eluates

binding [1]: binds
binding [2]: binds
Molecule: Proline and serine rich 1 (PROSER1) (from UniProt Q86XN7 1-944)

binding [1]: binds
binding [2]: binds
B1: PSPC1 (protein, UniProt Q8WXF1 1-523)
chain: MMLRGNLKQVRIEKNPARLRALESAVGESEPAAAAAMALALAGEPAPPAPAPPEDHPDEEMGFTIDIKSFLKPGEKTYTQRCRLFVGNLPTDITEEDFKRLFERYGEPSEVFINRDRGFGFIRLESRTLAEIAKAELDGTILKSRPLRIRFATHGAALTVKNLSPVVSNELLEQAFSQFGPVEKAVVVVDDRGRATGKGFVEFAAKPPARKALERCGDGAFLLTTTPRPVIVEPMEQFDDEDGLPEKLMQKTQQYHKEREQPPRFAQPGTFEFEYASRWKALDEMEKQQREQVDRNIREAKEKLEAEMEAARHEHQLMLMRQDLMRRQEELRRLEELRNQELQKRKQIQLRHEEEHRRREEEMIRHREQEELRRQQEGFKPNYMENREQEMRMGDMGPRGAINMGDAFSPAPAGNQGPPPMMGMNMNNRATIPGPPMGPGPAMGPEGAANMGTPMMPDNGAVHNDRFPQGPPSQMGSPMGSRTGSETPQAPMSGVGPVSGGPGGFGRGSQGGNFEGPNKRRRY

binding [1]: binds
binding [2]: binds
B2: NONO (protein, UniProt Q15233 1-471)
chain: MQSNKTFNLEKQNHTPRKHHQHHHQQQHHQQQQQQPPPPPIPANGQQASSQNEGLTIDLKNFRKPGEKTFTQRSRLFVGNLPPDITEEEMRKLFEKYGKAGEVFIHKDKGFGFIRLETRTLAEIAKVELDNMPLRGKQLRVRFACHSASLTVRNLPQYVSNELLEEAFSVFGQVERAVVIVDDRGRPSGKGIVEFSGKPAARKALDRCSEGSFLLTTFPRPVTVEPMDQLDDEEGLPEKLVIKNQQFHKEREQPPRFAQPGSFEYEYAMRWKALIEMEKQQQDQVDRNIKEAREKLEMEMEAARHEHQVMLMRQDLMRRQEELRRMEELHNQEVQKRKQLELRQEEERRRREEEMRRQQEEMMRRQQEGFKGTFPDAREQEIRMGQMAMGGAMGINNRGAMPPAPVPAGTPAPPGPATMMPDGTLGLTPPTTERFGQAATMEGIGAIGGTPPAFNRAAPGAEFAPNKRRRY

binding [1]: binds
binding [2]: binds
B3: O-linked N-acetylglucosamine transferase (OGT) (enzyme, UniProt O15294 1-1046)
chain: MASSVGNVADSTEPTKRMLSFQGLAELAHREYQAGDFEAAERHCMQLWRQEPDNTGVLLLLSSIHFQCRRLDRSAHFSTLAIKQNPLLAEAYSNLGNVYKERGQLQEAIEHYRHALRLKPDFIDGYINLAAALVAAGDMEGAVQAYVSALQYNPDLYCVRSDLGNLLKALGRLEEAKACYLKAIETQPNFAVAWSNLGCVFNAQGEIWLAIHHFEKAVTLDPNFLDAYINLGNVLKEARIFDRAVAAYLRALSLSPNHAVVHGNLACVYYEQGLIDLAIDTYRRAIELQPHFPDAYCNLANALKEKGSVAEAEDCYNTALRLCPTHADSLNNLANIKREQGNIEEAVRLYRKALEVFPEFAAAHSNLASVLQQQGKLQEALMHYKEAIRISPTFADAYSNMGNTLKEMQDVQGALQCYTRAIQINPAFADAHSNLASIHKDSGNIPEAIASYRTALKLKPDFPDAYCNLAHCLQIVCDWTDYDERMKKLVSIVADQLEKNRLPSVHPHHSMLYPLSHGFRKAIAERHGNLCLDKINVLHKPPYEHPKDLKLSDGRLRVGYVSSDFGNHPTSHLMQSIPGMHNPDKFEVFCYALSPDDGTNFRVKVMAEANHFIDLSQIPCNGKAADRIHQDGIHILVNMNGYTKGARNELFALRPAPIQAMWLGYPGTSGALFMDYIITDQETSPAEVAEQYSEKLAYMPHTFFIGDHANMFPHLKKKAVIDFKSNGHIYDNRIVLNGIDLKAFLDSLPDVKIVKMKCPDGGDNADSSNTALNMPVIPMNTIAEAVIEMINRGQIQITINGFSISNGLATTQINNKAATGEEVPRTIIVTTRSQYGLPEDAIVYCNFNQLYKIDPSTLQMWANILKRVPNSVLWLLRFPAVGEPNIQQYAQNMGLPQNRIIFSPVAPKEEHVRRGQLADVCLDTPLCNGHTTGMDVLWAGTPMVTMPGETLASRVAASQLTCLGCLELIAKNRQEYEDIAVKLGTDLEYLKKVRGKVWKQRISSPLFNTKQYTMELERLYLQMWEHYAAGNKPDHMIKPVEVTESA
